Measured data: PubChem BioAssay AID1259254 (NCATS, 2017)

Test: 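Genome-wide screen for genes that prevent DNA re-replication in cancer cells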 (primary screen)
Cells: human HCT116 colorectal cancer cells
Knock-down reagent: single siRNA against human genes
Timing: 3 days
Measured: 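Imaged Hoechst DNA stain sorts each cell into a cycle phase by DNA amount; per plate, G2 fraction set to 0% for non-targeting and 100% for GMNN siRNA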
Direction: G2 robust z-score and G2 cells, % of GMNN control: higher = more G2 cells, more excess DNA replication; raw share of cells in G2: higher = larger share of cells with G2 DNA content
Active means: 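Active siRNAs have a G2 robust z of 5 or more median absolute deviations over the median, which in these data means about 38% or higher of GMNN control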
This is a random part of about 59,000 reagents tested. About 1,550 of them (2.6%) count as active. 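G2 share is only a proxy for re-replication; each gene was hit by three separate siRNAs, and active genes were retested.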 Raw values are not corrected between plates. Not given: the amount of reagent.

target gene,PubChem SID,G2 robust z-score,"G2 cells, % of GMNN control",raw share of cells in G2 (%),call
NUBP1 (GeneID 4682),SID160777796,-0.896,-3.34,2.09,inactive
NUBP1 (GeneID 4682),SID160777797,-0.81,-2.73,4.39,inactive
NUBP1 (GeneID 4682),SID160777799,-1.18,-5.36,3.29,inactive
RNF26 (GeneID 79102),SID160748655,-0.225,1.39,4.84,inactive
RNF26 (GeneID 79102),SID160748656,-0.463,-0.292,5.53,inactive
RNF26 (GeneID 79102),SID160748657,2.93,23.6,12.8,inactive
ATP8B3 (GeneID 148229),SID160758667,1.99,17,10.9,inactive
ATP8B3 (GeneID 148229),SID160758668,0.171,4.17,6.45,inactive
ATP8B3 (GeneID 148229),SID160758669,-1.42,-7.03,2.6,inactive
ZNG1A (GeneID 55871),SID160733631,-0.469,-0.331,4,inactive
ZNG1A (GeneID 55871),SID160733632,0.72,8.03,5.7,inactive
ZNG1A (GeneID 55871),SID160744567,-1.01,-4.15,2.93,inactive
NDRG4 (GeneID 65009),SID160748208,0.0116,3.05,5.91,inactive
NDRG4 (GeneID 65009),SID160748209,-0.896,-3.34,3.11,inactive
NDRG4 (GeneID 65009),SID160748210,5.51,41.7,13.7,active
DLST (GeneID 1743),SID160754673,-0.294,0.902,5.28,inactive
DLST (GeneID 1743),SID160754683,0.357,5.48,6.99,inactive
DLST (GeneID 1743),SID160754694,-0.522,-0.703,3.85,inactive
CASTOR1 (GeneID 652968),SID160734170,-0.56,-0.974,2.49,inactive
CASTOR1 (GeneID 652968),SID160770910,1.93,16.5,10.5,inactive
CASTOR1 (GeneID 652968),SID160770911,1.77,15.5,8.87,inactive
CCSER1 (GeneID 401145),SID160767170,0.511,6.56,6.2,inactive
CCSER1 (GeneID 401145),SID160767171,-0.32,0.717,3.8,inactive
CCSER1 (GeneID 401145),SID160767172,0.314,5.18,6.94,inactive
NABP2 (GeneID 79035),SID160748514,-0.711,-2.04,4.8,inactive
NABP2 (GeneID 79035),SID160748515,-1.17,-5.24,2.49,inactive
NABP2 (GeneID 79035),SID160748516,-1,-4.09,2.74,inactive
NKAPL (GeneID 222698),SID160761898,0.468,6.26,5.85,inactive
NKAPL (GeneID 222698),SID160761899,2.69,21.9,10.6,inactive
NKAPL (GeneID 222698),SID160761900,0.547,6.82,5.37,inactive

Quoted from above (8 entries):
target gene,PubChem SID,G2 robust z-score,"G2 cells, % of GMNN control",raw share of cells in G2 (%),call
CASTOR1 (GeneID 652968),SID160770911,1.77,15.5,8.87,inactive
CCSER1 (GeneID 401145),SID160767170,0.511,6.56,6.2,inactive
CCSER1 (GeneID 401145),SID160767171,-0.32,0.717,3.8,inactive
CCSER1 (GeneID 401145),SID160767172,0.314,5.18,6.94,inactive
NABP2 (GeneID 79035),SID160748514,-0.711,-2.04,4.8,inactive
NABP2 (GeneID 79035),SID160748515,-1.17,-5.24,2.49,inactive
NABP2 (GeneID 79035),SID160748516,-1,-4.09,2.74,inactive
NKAPL (GeneID 222698),SID160761898,0.468,6.26,5.85,inactive

Continued:
target gene,PubChem SID,G2 robust z-score,"G2 cells, % of GMNN control",raw share of cells in G2 (%),call
GTF2A2 (GeneID 2958),SID160774679,0.522,6.64,6.1,inactive
GTF2A2 (GeneID 2958),SID160774680,-0.199,1.57,5.58,inactive
GTF2A2 (GeneID 2958),SID160774681,0.651,7.55,5.85,inactive
NCAM1 (GeneID 4684),SID160777803,-1.41,-6.94,0.906,inactive
NCAM1 (GeneID 4684),SID160777804,1.65,14.6,11,inactive
NCAM1 (GeneID 4684),SID160777805,-0.68,-1.81,4.75,inactive
TBC1D1 (GeneID 23216),SID160735740,0.368,5.56,8.6,inactive
TBC1D1 (GeneID 23216),SID160735741,0.33,5.29,5.92,inactive
TBC1D1 (GeneID 23216),SID160735742,-1.11,-4.86,2.2,inactive
VCL (GeneID 7414),SID160718722,0.121,3.82,5.68,inactive
VCL (GeneID 7414),SID160718723,-0.57,-1.04,4.13,inactive
VCL (GeneID 7414),SID160718724,-0.797,-2.64,4.48,inactive
BCL2L11 (GeneID 10018),SID160724237,-0.162,1.83,3.82,inactive
BCL2L11 (GeneID 10018),SID160724238,-0.7,-1.96,3.96,inactive
BCL2L11 (GeneID 10018),SID160730394,1.51,13.6,10.3,inactive
UST (GeneID 10090),SID160725231,-0.226,1.38,3.67,inactive
UST (GeneID 10090),SID160725235,1.36,12.5,9.93,inactive
UST (GeneID 10090),SID160725244,0.39,5.71,7.07,inactive
TRAF5 (GeneID 7188),SID160718327,0.578,7.03,6.79,inactive
TRAF5 (GeneID 7188),SID160718328,0.546,6.81,6.8,inactive
TRAF5 (GeneID 7188),SID160718329,-0.945,-3.68,4.04,inactive
LOC648149 (retired record) (GeneID 648149),SID160770287,-0.0625,2.53,4.73,inactive
LOC648149 (retired record) (GeneID 648149),SID160770288,-0.529,-0.751,2.95,inactive
LOC648149 (retired record) (GeneID 648149),SID160770289,-1.07,-4.59,1.59,inactive
PM20D2 (GeneID 135293),SID160757407,-0.111,2.18,5,inactive
PM20D2 (GeneID 135293),SID160757409,0.327,5.27,4.77,inactive
PM20D2 (GeneID 135293),SID160757410,-0.62,-1.39,2.07,inactive
FER1L6-AS1 (GeneID 439941),SID160767643,-0.91,-3.43,2.56,inactive
FER1L6-AS1 (GeneID 439941),SID160767644,-0.158,1.86,4.25,inactive
FER1L6-AS1 (GeneID 439941),SID160767645,0.739,8.17,8.18,inactive
RNF138 (GeneID 51444),SID160740826,-0.283,0.974,3.14,inactive
RNF138 (GeneID 51444),SID160740827,0.206,4.42,7.91,inactive
RNF138 (GeneID 51444),SID160740828,-0.044,2.66,4.47,inactive
SHOX2 (GeneID 6474),SID160716705,1.64,14.5,10.6,inactive
SHOX2 (GeneID 6474),SID160716707,-1.08,-4.62,2.96,inactive
SHOX2 (GeneID 6474),SID160716708,1.74,15.2,8.99,inactive
PTDSS2 (GeneID 81490),SID160750741,1.49,13.5,11,inactive
PTDSS2 (GeneID 81490),SID160750742,-0.1,2.26,5.01,inactive
PTDSS2 (GeneID 81490),SID160750743,3.81,29.8,15.8,inactive
